According to patent US10064926B2, “Peptides and combination of peptides for use in immunotherapy against hepatocellular carcinoma (HCC) and other cancers” (Immatics biotechnologies GmbH, priority 2014, dated 2018):

What was measured:
[1] = system: primary HCC tissue samples; experiment: Identification and label-free LC-MS relative quantitation of HLA-presented peptides (presentation profiles/scores), HCC versus normal tissues; design: species or system human; key to PeptidePresentation (presentation score): very highly over-presented on tumors compared to a panel of normal tissues (+++); highly over-presented on tumors compared to a panel of normal tissues (++); over-presented on tumors compared to a panel of normal tissues (+); conditions: HCC tumors compared to a panel of normal tissues
[2] = system: tumor samples of other tumor types; experiment: Over-presentation of peptides on additional tumor types versus normal tissues (LC-MS); design: species or system human; conditions: over-presentation on more than 5% of the measured tumor samples, or presentation on more than 5% with ratio of geometric means tumor vs normal tissues larger than 3

Substance | PeptidePresentation (presentation score) [1] | Additional Entities (additional tumor types on which the peptide was found over-presented) [2] | Other relevant organs/diseases (additional tumor types on which the peptide was found over-presented) [2]
248 (KLNDLIQRL; listed as Homo sapiens) [compound 248] | + | GC, Uterine Cancer | Pancreas
249 (LLLGERVAL; listed as Homo sapiens) [compound 249] | +++ |  | Colon, Rectum
250 (NLAEVVERV; listed as Homo sapiens) [compound 250] | ++ | NSCLC, SCLC, PrC, BRCA, MCC, OC, Gallbladder Cancer, Bile Duct Cancer | Brain, Colon, Rectum, CLL
251 (RLFADILNDV; listed as Homo sapiens) [compound 251] | ++ | NSCLC, SCLC, PrC, Melanoma, Urinary bladder cancer, Uterine Cancer | Brain, Colon, Rectum
252 (RTIEYLEEV; listed as Homo sapiens) [compound 252] | + | Melanoma | 
255 (SLFGQDVKAV; listed as Homo sapiens) [compound 255] | +++ |  | Kidney, Brain, Colon, Rectum
256 (SLFQGVEFHYV; listed as Homo sapiens) [compound 256] | + | CRC, CLL, MCC, NHL | 
257 (SLLEKAGPEL; listed as Homo sapiens) [compound 257] | +++ | CLL, Melanoma, OC | 
258 (SLMGPVVHEV; listed as Homo sapiens) [compound 258] | + | SCLC, MCC, Melanoma, OC, Urinary bladder cancer, NHL | Brain
260 (TLMDMRLSQV; listed as Homo sapiens) [compound 260] | ++ | SCLC, PrC, CLL, OC, Uterine Cancer, Gallbladder Cancer, Bile Duct Cancer | Kidney, Brain, Colon, Rectum
261 (VLFQEALWHV; listed as Homo sapiens) [compound 261] | ++ | Urinary bladder cancer | Colon, Rectum
264 (VMQDPEFLQSV; listed as Homo sapiens) [compound 264] | ++ | SCLC, CRC, PC, CLL, Melanoma, OC, Esophageal Cancer, Urinary bladder cancer, Gallbladder Cancer, Bile Duct Cancer, NHL | 
265 (WLIEDGKVVTV; listed as Homo sapiens) [compound 265] | ++ | Melanoma | 
266 (SLLESNKDLLL; listed as Homo sapiens) [compound 266] | + | SCLC, MCC, Uterine Cancer | Colon, Rectum
267 (ALNENINQV; listed as Homo sapiens) [compound 267] | + | SCLC, Brain Cancer, MCC, Melanoma, Esophageal Cancer, Urinary bladder cancer, Gallbladder Cancer, Bile Duct Cancer | 
268 (KLYQEVEIASV; listed as Homo sapiens) [compound 268] | + | CRC, MCC, Melanoma, Urinary bladder cancer | Brain
269 (YLMEGSYNKV; listed as Homo sapiens) [compound 269] | + | NSCLC, SCLC, PrC, BRCA, MCC, Melanoma, OC, Esophageal Cancer, Urinary bladder cancer, Gallbladder Cancer, Bile Duct Cancer | Brain, Colon, Rectum

Substance | PeptidePresentation (presentation score) [1] | Additional Entities (additional tumor types on which the peptide was found over-presented) [2] | Other relevant organs/diseases (additional tumor types on which the peptide was found over-presented) [2]
270 (SVLDQKILL; listed as Homo sapiens) [compound 270] | ++ | Melanoma, Urinary bladder cancer, Uterine Cancer, Gallbladder Cancer, Bile Duct Cancer, NHL | Kidney, Brain
271 (LLLDKLILL; listed as Homo sapiens) [compound 271] | + | CLL, Melanoma, OC, Urinary bladder cancer, Uterine Cancer | Brain, Colon, Rectum
272 (QQLDSKFLEQV; listed as Homo sapiens) [compound 272] | + | MCC, OC, NHL | Kidney, Brain
274 (ALAEALKEV; listed as Homo sapiens) [compound 274] | + | BRCA, MCC, Melanoma, OC, Uterine Cancer, AML | Colon, Rectum
275 (ALIEGAGILL; listed as Homo sapiens) [compound 275] | ++ | SCLC, MCC, Melanoma, OC, Esophageal Cancer, Urinary bladder cancer, Uterine Cancer, NHL | Kidney, Colon, Rectum, Pancreas
276 (ALLEADVNIKL; listed as Homo sapiens) [compound 276] | + | Gallbladder Cancer, Bile Duct Cancer, OC | Pancreas
277 (ALLEENSTPQL; listed as Homo sapiens) [compound 277] | + | SCLC, CLL, Melanoma, OC, Esophageal Cancer, Urinary bladder cancer, NHL | Kidney
278 (ALTSVVVTL; listed as Homo sapiens) [compound 278] | + | NSCLC, SCLC, GC, Esophageal Cancer, Urinary bladder cancer, Gallbladder Cancer, Bile Duct Cancer, AML, NHL | Kidney, Brain
281 (GLLAGDRLVEV; listed as Homo sapiens) [compound 281] | + | NSCLC, SCLC, OC, Urinary bladder cancer, Uterine Cancer, Gallbladder Cancer, Bile Duct Cancer, NHL | Kidney
282 (GQFPSYLETV; listed as Homo sapiens) [compound 282] | ++ | NSCLC, CLL, Melanoma, OC, Esophageal Cancer, Urinary bladder cancer, NHL | Kidney, Brain, Colon, Rectum
283 (ILSGIGVSQV; listed as Homo sapiens) [compound 283] | + | NSCLC, PrC, BRCA, Melanoma, OC, Esophageal Cancer, Urinary bladder cancer, Uterine Cancer, Gallbladder Cancer, Bile Duct Cancer, NHL, PC | Pancreas
284 (KLDAFVEGV; listed as Homo sapiens) [compound 284] | + | BRCA, OC | 
288 (LLDDSLVSI; listed as Homo sapiens) [compound 288] | + | Melanoma, Urinary bladder cancer, AML | Pancreas
289 (LLLEEGGLVQV; listed as Homo sapiens) [compound 289] | ++ | NSCLC, SCLC, PrC, Melanoma, OC, Urinary bladder cancer, NHL | Kidney, Colon, Rectum, Pancreas
290 (NLIDLDDLYV; listed as Homo sapiens) [compound 290] | ++ | SCLC, PrC, MCC, OC, Urinary bladder cancer, Uterine Cancer | Brain, Colon, Rectum, Pancreas
292 (RIPAYFVTV; listed as Homo sapiens) [compound 292] | + | GC, BRCA, Melanoma, NHL | Kidney
293 (FLASESLIKQI; listed as Homo sapiens) [compound 293] | ++ | NSCLC, PrC, MCC, Melanoma, OC, Esophageal Cancer, Urinary bladder cancer, Uterine Cancer, Gallbladder Cancer, Bile Duct Cancer, NHL, PC | Brain, Colon, Rectum
